PubChem BioAssay AID504786, Drosophila RNAi Screening Center | 2011

- Aim: 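Positive regulators of HIF-driven reporter output in Drosophila cells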 (primary screen)
- Cell system: Drosophila S2 cells with a stable HIF luciferase reporter
- Knock-down reagent: long dsRNA against Drosophila genes, about 0.2 µg dsRNA per well of a 384-well plate
- Timing: three days of knock-down, then 20 h of DFO before reading
- Challenge: desferrioxamine (DFO) at 100 µM, an iron chelator that mimics hypoxia, for 20 h
- Detection: 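HIF reporter luminescence in cells given 100 µM DFO for 20 h, using the mouse ldh-a hypoxia-response element, scored as per-plate z-scores; higher means greater loss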
- Reading the numbers: z-score: higher = stronger loss of HIF reporter signal
The deposit covers about 21,000 reagents; this is an unselected part of those that have a named target and a result. 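Primary screen; positive scores mean lost reporter signal, so the sign may be inverted from the usual convention.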 The numbers tell different reagents against one gene apart. A plus sign joins genes that one reagent is predicted to hit. Not all columns of the deposit are shown.

gene	reagent no.	z-score, replicate 1	z-score, replicate 2	z-score, replicate 3
REPTOR	1	0.2	-0.4	
CG3841	1	-0.1	-0.1	
CG6073	1	-0.3	-0.5	0.6
IKKepsilon	1	-0.3	-0.6	
CG3184	1	-0.1	-0.4	
gem	1	-0.4	-0.7	
gem	2	0	0.3	
Tbc1d15-17	1	-0.3	-0.3	
hiw	1	-0.5	0.8	
hiw	2	-0.2	-0.2	
CG15283	1	-0.1	0	
CG16727	1	-0.7	-0.5	
CG14339	1	-0.2	-0.1	
sle	1	-0.3	-0.5	
dikar	1	-0.1	-0.4	
CG13544	1	-0.4	-0.6	
Vps16B	1	0	-0.6	
Gs1l	1	-0.4	-0.4	
topi	1	-0.5	-1	
CG33258	1	-0.1	0	
SpdS	1	-0.4	-0.8	
Prosbeta4	1	-0.3	4.6	
spoon	1	-0.1	-0.3	
Cad99C	1	-0.3	-0.6	
Cad99C	2	-0.4	0.2	
CG17124	1	-0.3	0.5	
halo	1	-0.3	-0.5	
CG6961 + CG18259	1	-0.3	-0.4	
CG6961 + CG18259	2	-0.2	-0.5	

5 of these entries, reformatted:
gene | reagent no. | z-score, replicate 1 | z-score, replicate 2 | z-score, replicate 3
SpdS | 1 | -0.4 | -0.8 | –
Prosbeta4 | 1 | -0.3 | 4.6 | –
spoon | 1 | -0.1 | -0.3 | –
Cad99C | 1 | -0.3 | -0.6 | –
Cad99C | 2 | -0.4 | 0.2 | –

Continued.
gene	reagent no.	z-score, replicate 1	z-score, replicate 2	z-score, replicate 3
CG14546	1	-0.4	-0.6	
CG7054	1	-0.3	-0.1	
CG16976 (retired record)	1	-0.1	0.5	
CG16976 (retired record)	2	-0.3	0.4	
hng3	1	-0.4	-0.4	
SmydA-8	1	-0.4	-0.5	
kud	1	-0.3	-0.3	
Pen	1	-0.3	-0.8	
Cdk2	1	1.4	1.1	
alrm	1	0.1	0.7	
inaD	1	-0.3	-0.2	
CG5342	1	-0.3	-0.1	
Lk6	1	-0.6	-0.5	
Lk6	2	-0.4	-0.6	
CR42546	1	-0.2	-0.2	
Cdk1	1	4	4.5	
BORCS6	1	-0.3	-0.2	
CG32572	1	-0.5	-1.3	
CG32572	2	-0.3	-1.2	
Irk2	1	-0.3	-0.2	
BaraC	1	-0.1	0.6	
Mkp + CG34140	1	-0.2	-0.4	
Tango4	1	4.3	3.9	
Brd8	1	-0.5	-0.9	
CG5397	1	-0.2	-0.7	
CG31601	1	0.2	0	
CG17570	1	0.1	-0.1	
CG17570	2	-0.2	-0.3	
CG42712 (retired record)	1	-0.2	0	
CG31921	1	-0.4	0.2	
CG1468	1	-0.3	-0.4	
spi	1	-0.2	-0.4	
Nup62	1	1.3	2	
Nadk1b	1	-0.2	0	
Nadk1b	2	-0.4	-0.7	
Nadk1b	3	-0.4	-0.4	
CG17666	1	-0.3	0.6	
CG32755	1	-0.2	-0.3	
CG10195	1	-0.3	-0.5	
ubl	1	0.3	0.4	
yuri	1	-0.7	0.8	
yuri	2	1.1	0.5	
yuri	3	-0.1	-0.5	
yuri	4	-0.4	-0.6	
atl	1	-0.3	-0.3	
Csgalnact	1	-0.3	-0.4	
Got2	1	-0.3	-0.2	
AIF	1	-0.1	0.2	
Pka-C2	1	-0.1	0.2	
CG17660	1	-0.2	-0.4	
Taf10b + Taf10	1	0	-0.4	
Stoml2	1	0.2	0.2	
CG2124	1	-0.3	-0.2	
CG7607	1	-0.2	-0.2	
